# Measurements published in US5593991A, “Imidazole compounds, use and process of making” (priority 1995, dated 1997).
# Some of these results come from one statement about several compounds together.
# What was measured:
# TNF = experiment: Tumour Necrosis Factor production by LPS-stimulated human peripheral blood monocytes; type: cell-based; details: LPS 100 ng/ml, 16-18 hours
# IL-1 = experiment: Interleukin-1 production by LPS-stimulated human peripheral blood monocytes; type: cell-based; details: LPS 50 ng/ml, 24 h
Compound,inhibitors of in vitro TNF produced by human monocytes (TNF),inhibitors of in vitro IL-1 produced by human monocytes (IL-1)
"Fc1ccc(-c2ncn(CCCN3CCCCC3)c2-c2ccncc2)cc1 [Example 10, 1-[3-(1-piperidinyl)propyl]-4-(4-fluorophenyl)-5-(4-pyridyl)imidazole]",inhibitors,inhibitors
"CSc1ccccc1-n1cnc(-c2ccc(F)cc2)c1-c1ccncc1 [Example 21, 1-[2-(Methylthio)phenyl]-4-(4-fluorophenyl)-5-(4-pyridyl)imidazole]",inhibitors,inhibitors
"Fc1ccc(-c2ncn(CCCNCc3ccccc3)c2-c2ccncc2)cc1 [Example 6, 1-[3-(N-Phenylmethyl)aminopropyl]-4-(4-fluorophenyl)-5-(4-pyridyl)imidazole]",inhibitors,inhibitors
"CS(=O)(=O)NCCCn1cnc(-c2ccc(F)cc2)c1-c1ccncc1 [Example 5, 1-(3-Methylsulfnamidopropyl)-4-(4-fluorophenyl)-5-(4-pyridyl)imidazole]",inhibitors,inhibitors
"Fc1ccc(-c2ncn(CCCCl)c2-c2ccncc2)cc1 [Example 2, 1-(3-Chloropropyl)-4-(4-fluorophenyl)-5-(4-pyridyl)imidazole]",inhibitors,inhibitors
"CN(CCCn1cnc(-c2ccc(F)cc2)c1-c1ccncc1)Cc1ccccc1 [Example 7, 1-[3-(N-Phenylmethyl-N-methyl)aminopropyl)-4-(4-fluorophenyl)-5-(4-pyridyl)imidazole]",inhibitors,inhibitors
"CN(CCCn1cnc(-c2cccc([S+](C)[O-])c2)c1-c1ccncc1)Cc1ccccc1 (stereo not shown) [Example 16, 1-[3-(N-methyl-N-benzyl)aminopropyl]-4-(3-methylsulfinylphenyl)-5-(4-pyridyl)imidazole]",inhibitors,inhibitors
"[N-]=[N+]=NCCCn1cnc(-c2ccc(F)cc2)c1-c1ccncc1 [Example 3, 1-(3-Azidopropyl)-4-(4-fluorophenyl)-5-(4-pyridyl)imidazole]",inhibitors,inhibitors
"CSc1cccc(-n2cnc(-c3ccc(F)cc3)c2-c2ccncc2)c1 [Example 19, 1-[3-(Methylthio)phenyl]-4-(4-fluorophenyl)-5-(4-pyridyl)imidazole]",inhibitors,inhibitors
"Fc1ccc(-c2ncn(CCCCN3CCOCC3)c2-c2ccncc2)cc1 [Example 24, 1-[4-(4-Morpholinyl)butyl]-4--(4-fluorophenyl)-5-(4-pyridyl)imidazole]",inhibitors,inhibitors
"C[S+]([O-])c1ccccc1-n1cnc(-c2ccc(F)cc2)c1-c1ccncc1 (stereo not shown) [Example 22, 1-[2-(Methylsulfinyl)phenyl]-4-(4-fluorophenyl)-5-(4-pyridyl)imidazole]",inhibitors,inhibitors
"C[S+]([O-])c1cccc(-n2cnc(-c3ccc(F)cc3)c2-c2ccncc2)c1 (stereo not shown) [Example 20, 1-[3-(Methylsulfinyl)phenyl]-4-(4-fluorophenyl)-5-(4-pyridyl)imidazole]",inhibitors,inhibitors
"Fc1ccc(-c2ncn(CCCN3CCOCC3)c2-c2ccncc2)cc1 [Example 1, 1-[3-(4-Morpholinyl)propyl]-4-(4-fluorophenyl)-5-(4-pyridyl)imidazole]",inhibitors,inhibitors
"CSCCCn1cnc(-c2ccc(F)cc2)c1-c1ccncc1 [Example 11, 1-[3-(Methylthio)propyl]-4-(4-fluorophenyl)-5-(4-pyridyl)imidazole]",inhibitors,inhibitors
"Fc1ccc(-c2ncn(CCN3CCOCC3)c2-c2ccncc2)cc1 [Example 12, 1-[2-(4-Morpholinyl)ethyl]-4-(4-fluorophenyl)-5-(4-pyridyl)imidazole]",inhibitors,inhibitors
"C[S+]([O-])c1ccc(-n2cnc(-c3ccc(F)cc3)c2-c2ccncc2)cc1 (stereo not shown) [Example 18, 1-[4-(Methylsulfinyl)phenyl]-4-(4-fluorophenyl)-5-(4-pyridyl)imidazole]",inhibitors,inhibitors
"NCCCn1cnc(-c2ccc(F)cc2)c1-c1ccncc1 [Example 4, 1-(3-Aminoprop-yl)-4-(4-fluorophen-yl)-5-(4-pyridyl)imidazole]",inhibitors,inhibitors
"C[S+]([O-])c1cccc(-c2ncn(CCCN3CCOCC3)c2-c2ccncc2)c1 (stereo not shown) [Example 14, 1-[3-(4-Morpholinyl)propyl]-4-(3-methylsulfinylphenyl)-5-(4-pyridyl)imidazole]",inhibitors,inhibitors
"CSc1cccc(-c2ncn(CCCN3CCOCC3)c2-c2ccncc2)c1 [Example 13, 1-[3-(4-Morpholinyl)propyl]-4-(3-methylthiophenyl)-5-(4-pyridyl)imidazole]",inhibitors,inhibitors
"CSc1cccc(-c2ncn(CCCN(C)Cc3ccccc3)c2-c2ccncc2)c1 [Example 15, 1-[3-(N-methyl-N-benzyl)aminopropyl]-4-(3-methylthiophenyl)-5-(4-pyridyl)imidazole]",inhibitors,inhibitors
"Fc1ccc(-c2ncn(CCCN3CCCC3)c2-c2ccncc2)cc1 [Example 8, 1-[3-(1-Pyrrolidinyl)propyl]-4-(4-fluorophenyl)-5-(4-pyridyl)imidazole]",inhibitors,inhibitors
"CCN(CC)CCCn1cnc(-c2ccc(F)cc2)c1-c1ccncc1 [Example 9, 1-(3-Diethylaminopropyl)-4-(4-fluorophenyl)-5-(4-pyridyl)imidazole]",inhibitors,inhibitors
"CSc1ccc(-n2cnc(-c3ccc(F)cc3)c2-c2ccncc2)cc1 [Example 17, 1-[4-(Methylthio)phenyl]-4-(4-fluorophenyl)-5-(4-pyridyl)imidazole]",inhibitors,inhibitors
